This is one part of the list.

Chains of the proteins cited; added tags and fusions are not shown.
UniProt Q0JBA9, entry or part of it: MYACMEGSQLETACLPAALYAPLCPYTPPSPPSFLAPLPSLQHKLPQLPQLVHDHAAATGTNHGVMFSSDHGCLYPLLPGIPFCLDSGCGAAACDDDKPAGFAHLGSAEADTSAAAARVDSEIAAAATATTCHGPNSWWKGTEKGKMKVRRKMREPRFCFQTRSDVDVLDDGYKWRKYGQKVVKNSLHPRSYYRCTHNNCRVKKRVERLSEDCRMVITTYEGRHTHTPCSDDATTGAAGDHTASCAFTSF

This experiment deals with OsWRKY34 (Oryza sativa, UniProt Q0JBA9 1-250). The experiment can be described thus: protein-binding microarray (RPBM); PBS, 2% BSA, 51.3 ng/ul salmon testes DNA, 50 uM zinc acetate, 200 nM TF, 25 C, 1 h; high values mean tight binding. The note with it: protein: recombinant; tags: N-terminal polyhistidine and DsRed monomer fusion (pET32a); label: CyDye5-dUTP incorporated in the synthesized complementary strand; 3' TTTTT single-stranded linker to array surface; dsDNA, one strand shown. A digest of the protocol:
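Binding signal here means per-feature fluorescence intensity in arbitrary units. The values were read on an Axon 4000B scanner after a custom Agilent array, double-stranded by primer extension with Cy5-dUTP, was incubated with 200 nM protein at 25 °C for 1 h in PBS with 2% BSA, salmon testes DNA and 50 µM zinc acetate, then washed. The proteins were transcription factors with an N-terminal polyhistidine tag and DsRed, expressed in E. coli BL21-CodonPlus and purified on Ni–NTA.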
With “GTGGTTTCATCTATTTTGTGTTGTTTACTCGTATCTGTTACGGAGTCACCTAGTGCAG”, the binding signal is 10600 fluorescence intensity (a.u.).
The value for “ATAAGTGAGAAGGATTGGGGTGATCATTGTCTGTAATTCACGGAGTCACCTAGTGCAG” was 11100 fluorescence intensity (a.u.).
The value for “GAGACCATCCAACGCATCCATTCCGTCCTCTTCGATTGCTCGGAGTCACCTAGTGCAG” was 8580 fluorescence intensity (a.u.); that for “ATCACTAACCTCCTTTTCATCCCTCTCTACCGCTTTGCCTCGGAGTCACCTAGTGCAG” was 11000 fluorescence intensity (a.u.); that for “CATAGGAACATTTTGACTCCAGTTACCTTCTGACCATTGGCGGAGTCACCTAGTGCAG” was 9710 fluorescence intensity (a.u.).
The value for “CCGCTGATTCCGTTTGCCCTTGAGATGGCCCTGCCAACATCGGAGTCACCTAGTGCAG” was 8440 fluorescence intensity (a.u.); that for “TGGGGCTTCTGGTGTGCTCGGTGGTGTTCGCCGCGGCGGCCGGAGTCACCTAGTGCAG” was 14200 fluorescence intensity (a.u.); that for “GTTCGTGCCAGGGCCGTTCAACCTCGGAAAGTACGGGGTTCGGAGTCACCTAGTGCAG” was 8240 fluorescence intensity (a.u.).
For “CCCTACCACCGATGCCATGAAATTTCTTGTCGCTGCATCTCGGAGTCACCTAGTGCAG”, the binding signal is 9300 fluorescence intensity (a.u.).
The figure for “AACCCAACCCACCACCGCGAGCACCAAATCCAATCCATAGCGGAGTCACCTAGTGCAG” is 9080 fluorescence intensity (a.u.).
Take “ACTATAATCAAATCATCCACCATATCGTCGACCGACCAACCGGAGTCACCTAGTGCAG”: the binding signal is 8310 fluorescence intensity (a.u.).
Take “TCAACTCACTTTTGTTAATTTTGTATATTGTTTGTGCTTTCGGAGTCACCTAGTGCAG”: the binding signal is 8100 fluorescence intensity (a.u.).
Take “CTGCCCTTTACGCCCGGGGACCATGCATCATATCGACAACCGGAGTCACCTAGTGCAG”: the binding signal is 8470 fluorescence intensity (a.u.).
Regarding “GGGGCTTAAATCAAGTAGCTAAGAGGGCGGTGGTGGCTGACGGAGTCACCTAGTGCAG”, the binding signal is 8320 fluorescence intensity (a.u.).
Regarding “GTGATGTGTTCGACCGGGCCCTGCTAGCGATTGATCAAAACGGAGTCACCTAGTGCAG”, the binding signal was 8760 fluorescence intensity (a.u.).
The value for “ACAACCCATTACTACTACTCCCTCATGCACCTGTAATTCTCGGAGTCACCTAGTGCAG” was 8650 fluorescence intensity (a.u.); that for “ATACCATTTCCTCATTTTCGATAACCGTGTGCCTATTCTCCGGAGTCACCTAGTGCAG” was 8890 fluorescence intensity (a.u.).
The value for “ATTTTATTTGGTTGTATGCATATACCTCCTGTTTTTTAAGCGGAGTCACCTAGTGCAG” was 8770 fluorescence intensity (a.u.); that for “TCTTCAATCCCAGCTTTGCCTCTAAATCCAGCAGACGCATCGGAGTCACCTAGTGCAG” was 9090 fluorescence intensity (a.u.).
As to “TTTTGCAAAGTTTATTTGGAGGGCAGTTCAGTTTTCTTTTCGGAGTCACCTAGTGCAG”, the binding signal is 9380 fluorescence intensity (a.u.).
The figure for “CTGGCGGCGATAGGTCGTCTTCCTCGTTGCCGGTCAGCACCGGAGTCACCTAGTGCAG” is 8380 fluorescence intensity (a.u.).
For the sequence “TTTACACTTGTATTCTAATTTTACGTTCTTTTTTATTTCTCGGAGTCACCTAGTGCAG”, the binding signal is 8750 fluorescence intensity (a.u.).
The figure for “CCACACAATCTTGCCCTGTTTTTATTTGCCGCTTGTTAGTCGGAGTCACCTAGTGCAG” is 8040 fluorescence intensity (a.u.); for “GCCCACCTCGCTGTCTCCACGCCCGACTTCGACGCCGCGGCGGAGTCACCTAGTGCAG” it is 9100 fluorescence intensity (a.u.); for “AAGGTGGGATATTTGAGGGGTTTTGTGGCTGTATTATTTGCGGAGTCACCTAGTGCAG” it is 16100 fluorescence intensity (a.u.).
The figure for “TTCAATGGAAGTATCAATCGTTGACCTTCCAACAATTATTCGGAGTCACCTAGTGCAG” is 8100 fluorescence intensity (a.u.); for “TGGAGGCACATTAATTAATTATTATCATGATCCATTTGCCCGGAGTCACCTAGTGCAG” it is 11600 fluorescence intensity (a.u.); for “TCTCATCGCTGACAAACGCTTCGATTATTCTATCTCCGAACGGAGTCACCTAGTGCAG” it is 8790 fluorescence intensity (a.u.).
Take “TTGGCTACTTGGCTGGTTCTCTTGCTGTTCGAACAGCGCCCGGAGTCACCTAGTGCAG”: the binding signal was 9880 fluorescence intensity (a.u.).
For “CACCACCACTGAGCTGCCACTACTCATCCAGCTAACTAGGCGGAGTCACCTAGTGCAG”, the binding signal was 8030 fluorescence intensity (a.u.).
The figure for “TGCTACTCATACTATTTTTCTTTCTTTTTTTCGCATAGCTCGGAGTCACCTAGTGCAG” is 8080 fluorescence intensity (a.u.).
Regarding “TCTCTGGTTCCTCACTTTATTGATTAGCTTTTAAGATGGACGGAGTCACCTAGTGCAG”, the binding signal is 8280 fluorescence intensity (a.u.).
Turning to “CTCCAACCTTTTTGTTTGTGTCTCATCATTGGCTGCTATACGGAGTCACCTAGTGCAG”, the binding signal was 13800 fluorescence intensity (a.u.).
For the sequence “CCACGCCGCACCCACCCACTGCCCGTTCCGTTCCGGCGACCGGAGTCACCTAGTGCAG”, the binding signal was 10900 fluorescence intensity (a.u.).
The figure for “AGTCTAGGTCTTTCTTTGTCCTTAATTAATATATATTTGTCGGAGTCACCTAGTGCAG” is 12800 fluorescence intensity (a.u.).
On to “TACGGACTCCTCACTTCTTCTTCTTCTTTTTTCTTTTTTTCGGAGTCACCTAGTGCAG”, for which the binding signal was 14300 fluorescence intensity (a.u.).
The figure for “TGTTTCACCAGTGGTCAATTGCAACATTTGACCGATCGATCGGAGTCACCTAGTGCAG” is 12300 fluorescence intensity (a.u.); for “ATGAGGGGTCGGGGTTGGGCGGCGTGGGCACGGGCTCGAGCGGAGTCACCTAGTGCAG” it is 13000 fluorescence intensity (a.u.); for “TTCTTTCAGTCTTTCTTTCTTCTTCTTGTTTGCTGATCTTCGGAGTCACCTAGTGCAG” it is 8500 fluorescence intensity (a.u.).
The value for “AAATCTCTGAAGCTTGATGTCTGAACATGCTGTTCATTTCCGGAGTCACCTAGTGCAG” was 8720 fluorescence intensity (a.u.).
For “CCTAGTCGCCGCCGCCGCTCACGCCCTCCTCACTCTCGTCCGGAGTCACCTAGTGCAG”, the binding signal is 9760 fluorescence intensity (a.u.).
On to “AACAGTGGTCATTGTGTTGCATCCCGAGTTCTCGTTCTCACGGAGTCACCTAGTGCAG”, for which the binding signal is 8480 fluorescence intensity (a.u.).

The values are drawn from publication PMC7819943, “Rice protein-binding microarrays: a tool to detect cis-acting elements near promoter regions in rice”.
